Assay results taken from the supplement of paper PMC11348887.
Counter-ions that a name gives are not always drawn. This is one part of the list. Most entries show no effect beyond the scatter of the controls.

system: hPSC-derived cortical neurons (WA09); test: nucleus roundness z-score vs screen plate; higher = rounder nuclei (more mature); conditions: 5 µM; treatment: days 7-14 after plating, readout day 21

SMILES	nucleus roundness z-score
O=C(NCc1ccccc1)c1csc(Nc2ccncn2)n1 [Thiazovivin]	0.173
CCCCNc1ncc(C(=O)NCc2ccc(-n3ccnc3)cc2)c(NC2CCC(O)CC2)n1 (centres undefined)	0.012
CN1CCN2c3ncccc3Cc3ccccc3C2C1 (centres undefined) [Mirtazapine]	1.78
C=CC(=O)Nc1ccc(CN2C(=O)N(c3cc(OC)cc(OC)c3)Cc3cnc(Nc4ccc(N5CCN(C)CC5)cc4)nc32)cc1	-4.5
C/C(=N\NC(=S)N1CCC1)c1ccccn1	0.0208
CCCCOc1c(C(=O)c2c(F)cc(C)cc2F)c[nH]c2nncc1-2	-0.898
CC/C(=C(\c1ccccc1)c1ccc(OCCN(C)C)cc1)c1ccccc1 [Tamoxifen]	-3.47
O=C(/C=C/C=C/c1ccc2c(c1)OCO2)N1CCCCC1 [Piperine]	1.05
O=C(O)C[C@H](O)C[C@H](O)/C=C/c1c(C2CC2)nc2ccccc2c1-c1ccc(F)cc1 [Pitavastatin Calcium]	-3.8
CCOc1cc2ncc(C#N)c(Nc3ccc(F)c(Cl)c3)c2cc1NC(=O)/C=C/CN(C)C [Pelitinib (EKB-569)]	2.17
CCc1cncnc1N1CCN(Cc2nc3ccc(C(F)(F)F)cc3[nH]2)CC1	-0.933
C#Cc1cccc(Nc2ncnc3cc(OCCOC)c(OCCO)cc23)c1	-0.465
CC1(C)[C@@H](O[C@H]2O[C@H](C(=O)O)[C@@H](O)[C@H](O)[C@H]2O[C@@H]2O[C@H](C(=O)O)[C@@H](O)[C@H](O)[C@H]2O)CC[C@]2(C)[C@H]3C(=O)C=C4[C@@H]5C[C@@](C)(C(=O)O)CC[C@]5(C)CC[C@@]4(C)[C@]3(C)CC[C@@H]12 [Ammonium Glycyrrhizinate]	-0.62
COc1cccc(-c2cc(F)ccc2C2Cc3nc(N)nc(C)c3C(=O)N2)n1 (centres undefined)	-1.14

Part of the list above, as a markdown table:

| SMILES | nucleus roundness z-score |
| --- | --- |
| C/C(=N\NC(=S)N1CCC1)c1ccccn1 | 0.0208 |
| CCCCOc1c(C(=O)c2c(F)cc(C)cc2F)c[nH]c2nncc1-2 | -0.898 |
| CC/C(=C(\c1ccccc1)c1ccc(OCCN(C)C)cc1)c1ccccc1 [Tamoxifen] | -3.47 |
| O=C(/C=C/C=C/c1ccc2c(c1)OCO2)N1CCCCC1 [Piperine] | 1.05 |

system: hPSC-derived cortical neurons (WA09); test: KCl-induced FOS+/EGR-1+ double-positive nuclei fraction z-score (KCl minus unstimulated); higher = stronger activity-induced IEG response; conditions: 5 µM; treatment: days 7-14 after plating, readout day 21

SMILES	KCl-induced FOS+/EGR-1+ double-positive nuclei fraction z-score
CNCCc1ccccn1 [Betahistine 2HCl]	1.85
Cc1cccc(-c2[nH]c(CNc3ccccc3F)nc2-c2ccc3ncnn3c2)n1	-0.122
COC(=O)N[C@H](C(=O)N1CCC[C@H]1c1ncc(-c2ccc(-c3ccc(-c4cnc([C@@H]5CCCN5C(=O)[C@@H](NC(=O)OC)C(C)C)[nH]4)cc3)cc2)[nH]1)C(C)C	0.948
CCCNCC(O)COc1ccccc1C(=O)CCc1ccccc1 (centres undefined) [Propafenone HCl]	-0.448
O=C1NC(=O)C(c2cnc3ccccn23)=C1c1cn2c3c(cc(F)cc13)CN(C(=O)N1CCCCC1)CC2	-1.22
Oc1cccc(O)c1 [Resorcinol]	0.631
Cc1c(C(=O)N2CCOc3ccc(-c4ccc(N)nc4)cc3C2)ccc(S(C)(=O)=O)c1F	-0.314
Nc1nc(=O)c2c([nH]1)NCC(CNc1ccc(C(=O)N[C@@H](CCC(=O)O)C(=O)O)cc1)N2C=O (some centres undefined) [Leucovorin Calcium Pentahydrate]	-0.306
CN1CCC[C@H]1c1cccnc1 [Nicotine Ditartrate]	1.35
C[C@H](NC(=O)CCc1nc2ccccc2c(=O)[nH]1)c1ccccc1	0.797
COC(=O)Nc1nc2cc(C(=O)c3cccs3)ccc2[nH]1 [Nocodazole]	-0.909
COc1ccc(-c2nc3cc(C4=NNC(=O)CC4C)ccc3[nH]2)cc1 (centres undefined) [Pimobendan]	1.28
Cc1c(O)cccc1C(=O)N[C@@H](CSc1ccccc1)[C@H](O)CN1C[C@H]2CCCC[C@H]2C[C@H]1C(=O)NC(C)(C)C [Nelfinavir Mesylate]	-0.498
NC(=O)c1cccc(-c2cccc(OC(=O)NC3CCCCC3)c2)c1	1.12
CCOC(=O)c1ccc(OC(=O)CCCCCNC(=N)N)cc1 [Gabexate Mesylate]	-0.83
C[C@@H](Nc1cc(F)cc(F)c1)c1cc(C(=O)N(C)C)cc2c(=O)cc(N3CCOCC3)oc12	-0.128
CC1=C(C(=O)OC2CCCCC2)C(c2ccc([N+](=O)[O-])cc2)C2=C(CC(C)(C)CC2=O)N1 (centres undefined)	0.183
COc1ccc2c(c1)c(CC(=O)OCC(=O)O)c(C)n2C(=O)c1ccc(Cl)cc1 [Acemetacin]	-0.383
CN1CCOC(c2ccccc2)c2ccccc2C1 (centres undefined) [Nefopam HCl]	-0.0925
COc1ccc(COc2ccc(Cc3cnc(N)nc3N)cc2OC)cc1	0.0295

SMILES	KCl-induced FOS+/EGR-1+ double-positive nuclei fraction z-score
CCC[C@@H]1C[C@@H](C(=O)N[C@@H]([C@H]2O[C@H](SC)[C@H](O)[C@@H](O)[C@H]2O)[C@H](C)Cl)N(C)C1 [Clindamycin]	-0.303
OC[C@H]1OC(O)[C@H](O)[C@@H](O)[C@@H]1O (some centres undefined) [Dextrose]	0.518
CC(=O)O[C@]1(C(C)=O)CC[C@H]2[C@@H]3C=C(Cl)C4=CC(=O)CC[C@]4(C)[C@H]3CC[C@@]21C [Chlormadinone acetate]	0.952
CC(C)[C@H](O)C(=O)N[C@@H](C)C(=O)N[C@@H]1C(=O)N(C)CCc2ccccc21	0.609
Nc1nc(F)nc2c1ncn2[C@@H]1O[C@H](CO)[C@@H](O)[C@@H]1O [Fludarabine]	0.335
C[C@]12CC[C@H](O)CC1=CC[C@@H]1[C@@H]2CC[C@]2(C)C(n3cnc4ccccc43)=CC[C@@H]12 [Galeterone]	2.43
O=C(NCc1ccccc1)c1csc(Nc2ccncn2)n1 [Thiazovivin]	0.00892
CCCCNc1ncc(C(=O)NCc2ccc(-n3ccnc3)cc2)c(NC2CCC(O)CC2)n1 (centres undefined)	-1.72
CN1CCN2c3ncccc3Cc3ccccc3C2C1 (centres undefined) [Mirtazapine]	1.87
C=CC(=O)Nc1ccc(CN2C(=O)N(c3cc(OC)cc(OC)c3)Cc3cnc(Nc4ccc(N5CCN(C)CC5)cc4)nc32)cc1	-2.18
C/C(=N\NC(=S)N1CCC1)c1ccccn1	-7.4
CCCCOc1c(C(=O)c2c(F)cc(C)cc2F)c[nH]c2nncc1-2	-0.227
CC/C(=C(\c1ccccc1)c1ccc(OCCN(C)C)cc1)c1ccccc1 [Tamoxifen]	-1.44
O=C(/C=C/C=C/c1ccc2c(c1)OCO2)N1CCCCC1 [Piperine]	0.0901
O=C(O)C[C@H](O)C[C@H](O)/C=C/c1c(C2CC2)nc2ccccc2c1-c1ccc(F)cc1 [Pitavastatin Calcium]	-1.28
CCOc1cc2ncc(C#N)c(Nc3ccc(F)c(Cl)c3)c2cc1NC(=O)/C=C/CN(C)C [Pelitinib (EKB-569)]	-2.08
CCc1cncnc1N1CCN(Cc2nc3ccc(C(F)(F)F)cc3[nH]2)CC1	0.0793
C#Cc1cccc(Nc2ncnc3cc(OCCOC)c(OCCO)cc23)c1	0.886
CC1(C)[C@@H](O[C@H]2O[C@H](C(=O)O)[C@@H](O)[C@H](O)[C@H]2O[C@@H]2O[C@H](C(=O)O)[C@@H](O)[C@H](O)[C@H]2O)CC[C@]2(C)[C@H]3C(=O)C=C4[C@@H]5C[C@@](C)(C(=O)O)CC[C@]5(C)CC[C@@]4(C)[C@]3(C)CC[C@@H]12 [Ammonium Glycyrrhizinate]	1.15
COc1cccc(-c2cc(F)ccc2C2Cc3nc(N)nc(C)c3C(=O)N2)n1 (centres undefined)	-0.321
